Results deposited as PubChem BioAssay AID504744 (Drosophila RNAi Screening Center, 2011)
The deposit covers about 23,000 reagents; this is a random part of those with a known target gene and a result. In the full data, 98 (0.43%) are marked active. 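Only hit calls are given; the phospho-dAkt signals, z-scores and hit direction were not deposited.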 A plus sign joins genes that one reagent is predicted to hit. Reagent sequences are not shown.

Screen: 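Identify dsRNAs that increase or decrease phospho-dAkt after insulin treatment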 (primary screen)
Cells: Drosophila Kc167 cells
Reagents: long dsRNA against Drosophila genes, 250 ng dsRNA per well of a 384-well plate
Time to read-out: 3 days of knock-down, then overnight serum-free starvation before stimulation
Treatment: bovine insulin at 387 nM for 10 minutes after 12 h without serum
Detection: 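Per-well phospho-dAkt level from an in-cell fluorescent antibody stain, divided by a DNA-dye signal; log2 residuals turned into z-scores that take cell number into account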
Rule for the call: 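Under insulin, a gene counts as a hit if the average z-score of two replicates lies above 2.5 or below -2.5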

| gene knocked down | amplicon | activity call |
| --- | --- | --- |
| Hgsnat | DRSC18405 | inactive |
| CG14492 | DRSC06463 | inactive |
| CG6724 | DRSC02983 | inactive |
| CG5412 | DRSC15796 | inactive |
| Cyp4g15 | DRSC20240 | inactive |
| CG4679 | DRSC06880 | inactive |
| CG31386 (retired record) | DRSC22769 | inactive |
| mmd | DRSC19672 | inactive |
| mmd | DRSC19673 | inactive |
| mmd | DRSC20161 | inactive |
| Loxl2 | DRSC04469 | inactive |
| acj6 | DRSC20304 | inactive |
| CG44251 | DRSC06856 | inactive |
| beat-Ic | DRSC01524 | inactive |
| beat-Ic | DRSC03491 | inactive |
| TwdlN | DRSC15813 | inactive |
| Prosbeta5R2 | DRSC01617 | inactive |
| Prps | DRSC08994 | inactive |
| Prps | DRSC10707 | inactive |
| Prps | DRSC10708 | inactive |
| btz | DRSC14566 | inactive |
| plh | DRSC12294 | inactive |
| Mau2 | DRSC15550 | inactive |
| sbr | DRSC19770 | inactive |
| sbr | DRSC20368 | inactive |
| CG32117 | DRSC21652 | inactive |
| ACXA | DRSC00844 | inactive |
| Nepl3 | DRSC02681 | inactive |
| ea | DRSC16939 | inactive |
| lectin-24A | DRSC00604 | inactive |
| Spt6 | DRSC18836 | inactive |
| ana | DRSC07579 | inactive |
| CG16957 | DRSC02545 | inactive |
| Ugt301D1 | DRSC02021 | inactive |
| Ir20a | DRSC20506 | inactive |
| CG1486 | DRSC20508 | inactive |
| CG34006 (retired record) | DRSC13817 | inactive |
| Fst | DRSC16491 | inactive |
| CG31495 | DRSC16762 | inactive |
| Usp14 | DRSC02853 | inactive |
| Gbeta76C | DRSC11174 | inactive |
| CG12341 | DRSC06133 | inactive |
| CG2209 | DRSC19843 | inactive |
| sli | DRSC07684 | inactive |
| CG13857 | DRSC14707 | inactive |
| Sry-alpha | DRSC16867 | inactive |
| wmd | DRSC04436 | inactive |
| CG1428 | DRSC03708 | inactive |
| Vps33B | DRSC15722 | inactive |
| Hil | DRSC05989 | inactive |
| Hil | DRSC06395 | inactive |
| fws | DRSC02969 | inactive |
| nonC | DRSC18366 | inactive |
| nonC | DRSC18367 | inactive |
| Takl2 | DRSC15650 | inactive |
| CG6550 | DRSC07001 | inactive |
| Ir52a | DRSC06262 | inactive |
| CG33477 | DRSC22934 | inactive |
| CG3420 | DRSC04995 | inactive |
| dia | DRSC03519 | inactive |
| CG32027 (retired record) | DRSC09571 | inactive |
| yellow-f | DRSC15348 | inactive |
| CG31269 | DRSC15744 | inactive |
| CG14757 | DRSC06492 | inactive |
| CG1463 | DRSC19603 | inactive |
| twin | DRSC15259 | inactive |
| twin | DRSC15831 | inactive |
| twin | DRSC21363 | inactive |
| Cpr12A | DRSC19722 | inactive |
| beta'COP | DRSC03492 | inactive |
| CG32313 | DRSC21450 | inactive |
| CG32079 | DRSC22636 | inactive |
| Hnf4 | DRSC01032 | inactive |
| Hnf4 | DRSC03344 | inactive |
| CG42375 + CG9288 | DRSC16468 | inactive |
| CG14625 | DRSC18633 | inactive |
| Dus2 | DRSC19591 | inactive |
| Alp1 | DRSC11781 | inactive |
| FucTB | DRSC02745 | inactive |
| Vha68-3 | DRSC02809 | inactive |
| Semp1 | DRSC01874 | inactive |
| TyrR | DRSC16242 | inactive |
| CG14891 | DRSC15013 | inactive |
| CG33502 + CG32857 + CG32500 | DRSC20817 | inactive |
| CG33502 + CG32857 + CG32500 | DRSC21038 | inactive |
| Rilpl | DRSC18494 | inactive |
| CG30411 | DRSC04004 | inactive |
| CG17168 | DRSC20904 | inactive |
| Usp12-46 | DRSC16175 | inactive |
| l(3)07882 | DRSC15882 | inactive |
| scramb2 | DRSC08543 | inactive |
| CG9921 | DRSC20220 | inactive |
| dlt | DRSC08705 | inactive |
| Tsp66E | DRSC09683 | inactive |
| gpp | DRSC12515 | inactive |
| gpp | DRSC12516 | inactive |
| Cyp4p1 | DRSC07372 | inactive |
| CG6094 | DRSC02927 | inactive |
| CG6094 | DRSC22705 | inactive |
| CG3342 | DRSC18304 | inactive |
| CG13594 | DRSC04229 | inactive |
| Ent2 | DRSC02124 | inactive |
| roq | DRSC10227 | inactive |
| cue | DRSC08248 | inactive |
| Scamp | DRSC20286 | inactive |
| Dhc98D | DRSC16645 | inactive |
| nemy | DRSC05357 | inactive |
| nemy | DRSC07262 | active |

Reformatted: results already given
{"gene knocked down": "CG30411", "amplicon": "DRSC04004", "activity call": "inactive"}
{"gene knocked down": "CG17168", "amplicon": "DRSC20904", "activity call": "inactive"}
{"gene knocked down": "Usp12-46", "amplicon": "DRSC16175", "activity call": "inactive"}
{"gene knocked down": "l(3)07882", "amplicon": "DRSC15882", "activity call": "inactive"}
{"gene knocked down": "scramb2", "amplicon": "DRSC08543", "activity call": "inactive"}
{"gene knocked down": "CG9921", "amplicon": "DRSC20220", "activity call": "inactive"}
{"gene knocked down": "dlt", "amplicon": "DRSC08705", "activity call": "inactive"}
{"gene knocked down": "Tsp66E", "amplicon": "DRSC09683", "activity call": "inactive"}
{"gene knocked down": "gpp", "amplicon": "DRSC12515", "activity call": "inactive"}
{"gene knocked down": "gpp", "amplicon": "DRSC12516", "activity call": "inactive"}
